Most values lie at the floor of the assay. Slopes are relative: functional sequences can read slightly below zero.
System: Saccharomyces cerevisiae PS128 hsf1 delta, HSF1(1-493) fusion
Assay: growth estimate (transactivation domain function in HSF1 fusion, heat-shock survival) (a.u. (slope of normalised read count over time)); higher = stronger growth at 37°C, i.e. more transactivation activity
Details: library: random library

Substance	growth estimate
ERTRIGPYPAVCRLFRPLRY	< -0.25
CQTRGTGKVQEC	< -0.25
QVRLV	< -0.25
VWICSVEHVP	< -0.25
ATLQRWTHQGHVWI	< -0.25
RYS	< -0.25
GELLNPWC	< -0.25
QQLTSVGNASRMRIAIHIVW	< -0.25
ERQGTSESIGLLCGL	< -0.25
RNSKLKLSGECLRLHMITVR	< -0.25
VCVSVPLGMET	< -0.25
SHSSIVFITGYPGAAPDDRG	< -0.25
AAGSLERVFAGYEVCV	< -0.25
RKCHSAYNLRCVRLSCLTLW	< -0.25
FQCASNVSFKPGSLHGGLNS	< -0.25
NCVGLPDGPDDLPGESGNPA	< -0.25
CGSLVISNGLSVLLRCCAIL	< -0.25
ASIKSHVGARRFCYSLRE	< -0.25
GVVSQFGLKRTVRGCPRTET	< -0.25
ERCTALSYRGLPGILYCY	< -0.25
VVRGGWASEQVVIV	< -0.25
FMERHMAGVIGSTVCSLSRD	< -0.25
KGEPSQTSWPKQALH	< -0.25

Substance	growth estimate
KIS	< -0.25
YPQW	-0.237
PRLGRTLFIVSCDEPFFSHL	< -0.25
HPYDWKRVPERQ	< -0.25
HGKLCWRLAAGSGTSRICMS	< -0.25
GSETNLTWPGLSSLLGGCGQ	< -0.25
YFVSRIHVC	< -0.25
GCRLYICFTGQNCLETNVLL	< -0.25
IVGFGRPMDRMVCSRMNGGN	< -0.25
HYLTALLRRSSGIFKSPSRL	< -0.25
SNI	< -0.25
ATLAETQPFVRLMR	< -0.25
PRNKK	< -0.25
IAQLGGIREGASYLGLSRHA	< -0.25
STIAVQSHWGTTWVYLVVPY	< -0.25
SEN	< -0.25
TMIHLYFVVSQKR	< -0.25
GSQGGDAYH	< -0.25
SPRRGLSRVKQRYQGSGRRD	< -0.25
RKKAESRDGDVERRKVQFSS	< -0.25
GAPGRRSEFPGGGVDVI	< -0.25
IVVHLDFVVDCFSFPC	< -0.25
FERWFDNLLPLIAGACQ	< -0.25

Substance	growth estimate
PDWFGPRCLVSPQLGGEHAL	< -0.25
KRQQSLTAPPSCIMPDLDVP	< -0.25
SVP	< -0.25
GGICISFMCITSVLVY	< -0.25
LASTGWVMTVEGSGSFA	< -0.25
GAAIQCGLKATGLRTPDLVA	< -0.25
LYGKIGHGPTKRFR	< -0.25
SERSET	< -0.25
GSSLFHPLPTPRCRPPYQIM	< -0.25
CGPLSKFVDADLTHLVRSSE	< -0.25
CGIWARWGPACTTLRQQQTH	< -0.25
SVELVLETEYIRDTRGISSP	< -0.25
LQWELDANPRRTA	< -0.25
GQGTDG	< -0.25
VWEFLGWAINQIIGHGFACM	< -0.25
YLRDPGRDH	< -0.25
AYPAGPVPVLATRSNECLER	< -0.25
TQCCITS	< -0.25
PIRTGCNPVHTSSCWVGDAV	< -0.25
GPVV	< -0.25
SHT	< -0.25
TTFKALAPWCR	< -0.25
LNNTRWGRT	< -0.25

Substance	growth estimate
RWID	< -0.25
MVRATCRLPFLGRRIAGHSK	< -0.25
ESSSPT	< -0.25
MFADVSGTHKIHDVFSP	< -0.25
LYRMWADSNKSDYRTRPIHS	< -0.25
LIDRKALRTCR	< -0.25
DDYAIFTSVPRTRPAVFE	< -0.25
GSIRDSGIALSPSGWQSGK	< -0.25
ASYGSLGLNSEVGTFRTYPS	< -0.25
MAVISAPQPYVI	< -0.25
TATAHPNCETV	< -0.25
GPCVPVIRCWGAGNSASSPC	< -0.25
FVPTGGGLRRKDTHICHVAG	< -0.25
IRMVLVMRSIKMWIICLELA	< -0.25
RELLQVSLFTARFQ	-0.246
GYSLGVLPHAGFRAIRRYVS	< -0.25
FGVKRL	< -0.25
VPALVVSRALLGNVGSAPRV	< -0.25
GIVMPVFRWYAGRGRRNVAH	< -0.25
MQHELHTELPIVKGTSGRYV	< -0.25
QCSRGNGHAFANHSK	< -0.25
TLKYPNSTRQSFEVLSSRLR	< -0.25
KSGPPL	< -0.25

Substance	growth estimate
PASNDPDGRRVGHMMERLNA	< -0.25
RTLASGLAPKGSGTRTLMWR	< -0.25
SAVLL	< -0.25
CLQCFSRS	< -0.25
VSSKMPLHVR	< -0.25
TINVPLA	< -0.25
HTGDIAMIFV	< -0.25
QPEIQGEIVGARRRNLWDST	< -0.25
ISPCDGGT	< -0.25
HCGMYRPIETDL	< -0.25
APARKGLQGVQKKLRRRK	< -0.25
TNEIALQQKATFPVCSRAMS	< -0.25
KMACRFQGMLALQPSP	< -0.25
CLGSCFGDLGTFRLWGQLSK	< -0.25
VVGC	< -0.25
PLGQTSLIPNNGKSNCSECL	< -0.25
LGYQEFSGPILARNLEGK	< -0.25
CNWVAIPVRRGSQDQ	< -0.25
RTPGDGSCQSKQNPPEFGAH	< -0.25
RLNASTVLYGVRSYLRCAFD	< -0.25
TGGGNGNL	< -0.25
RLAIYRRSVHSIKPPGLACT	< -0.25
EARR	< -0.25

Substance	growth estimate
GWTSTRLLGPPND	< -0.25
RFMRNTVSFTHAIALSNSVV	< -0.25
PGGIGK	< -0.25
PRYLFSPVSRDLN	-0.237
MVLHYSIPSSE	< -0.25
GTIRK	< -0.25
SENVPKRKGLTGLCHSGGWV	< -0.25
RGVRPETFETAKIKQWKGPR	< -0.25
DSQEFARNACQNAPSLL	-0.228
LLRTRKRI	< -0.25
VEKTLGHLMV	< -0.25
IRSH	< -0.25
GHHECRFNVSH	< -0.25
GGELCENNARSS	< -0.25
RMSLVILAQTTGT	< -0.25
NKCADGVARPRSSEVACKPQ	< -0.25
VRKRRWGLLGERLRDKVFCA	< -0.25
IILV	< -0.25
GRAGTGPNHGHPRLPREVPR	< -0.25
WTNAPG	< -0.25
PHLSNQRLKGGLVPRSGSLK	< -0.25
RVRYPLLSLLPGTQ	< -0.25
VRIKSSARRIEAGAGGTNAP	-0.231

Substance	growth estimate
DACDGQNPDGSSRSVRLVLS	< -0.25
TGSGCVLIQMVE	< -0.25
VYSEVLPIPAYCLSVNGYSG	< -0.25
RFMDRRR	< -0.25
NVSGCNSFDDSNPRSVRLRV	< -0.25
FSPLHRARNRV	-0.245
SRLVVSSGSYDDRRNSLKAG	< -0.25
LPGAAWSRNSRTCSPGLSRV	< -0.25
SQL	< -0.25
TETNICCDEGP	< -0.25
LITSSAVVLRTYLVTRYQPP	< -0.25
DERI	< -0.25
NRRSPSTGRASTRSRSRSTP	< -0.25
ALRWQLQMWADFTWPGLNKA	< -0.25
RLLDIIAFSLDHRCLHVVFC	< -0.25
RETPISTVVLNYSGRFRMLE	< -0.25
PVSDRSARRWVRASQLATSH	< -0.25
GHSIGLGVKPGQSATAPLSI	< -0.25
GEHRVAVHVHGSMRNTTSLW	< -0.25

— the supplement of paper PMC5949888
